Measurements taken from PMC5982827.
No constants are given. Whether binding was seen depends on the method and setting. Binding seen in cells or lysates may run through a third protein. Binding can be weak; no strength is given.

The chains behind the UniProt entries cited, without tags or fusion partners. Where a name states a change or a piece, a line headed by the entry shows the natural chain unless it says otherwise.
UniProt P32447: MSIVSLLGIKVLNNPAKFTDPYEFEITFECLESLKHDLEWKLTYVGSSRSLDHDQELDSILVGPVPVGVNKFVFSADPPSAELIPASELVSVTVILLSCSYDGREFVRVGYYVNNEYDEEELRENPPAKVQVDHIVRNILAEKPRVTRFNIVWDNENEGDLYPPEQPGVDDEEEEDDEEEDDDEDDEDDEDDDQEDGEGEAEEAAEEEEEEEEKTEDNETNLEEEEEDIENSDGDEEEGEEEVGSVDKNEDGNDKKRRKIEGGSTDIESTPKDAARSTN
UniProt Q12341: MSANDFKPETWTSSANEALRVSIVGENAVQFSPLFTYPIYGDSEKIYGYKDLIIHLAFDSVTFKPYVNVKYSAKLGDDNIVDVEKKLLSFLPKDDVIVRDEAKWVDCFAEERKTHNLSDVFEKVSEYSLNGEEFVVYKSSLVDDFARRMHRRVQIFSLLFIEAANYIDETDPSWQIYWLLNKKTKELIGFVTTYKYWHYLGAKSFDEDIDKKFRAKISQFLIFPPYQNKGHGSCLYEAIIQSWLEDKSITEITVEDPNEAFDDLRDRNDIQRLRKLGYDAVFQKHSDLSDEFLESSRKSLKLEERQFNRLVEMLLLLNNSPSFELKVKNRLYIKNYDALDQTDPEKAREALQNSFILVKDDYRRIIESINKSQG
UniProt Q12373: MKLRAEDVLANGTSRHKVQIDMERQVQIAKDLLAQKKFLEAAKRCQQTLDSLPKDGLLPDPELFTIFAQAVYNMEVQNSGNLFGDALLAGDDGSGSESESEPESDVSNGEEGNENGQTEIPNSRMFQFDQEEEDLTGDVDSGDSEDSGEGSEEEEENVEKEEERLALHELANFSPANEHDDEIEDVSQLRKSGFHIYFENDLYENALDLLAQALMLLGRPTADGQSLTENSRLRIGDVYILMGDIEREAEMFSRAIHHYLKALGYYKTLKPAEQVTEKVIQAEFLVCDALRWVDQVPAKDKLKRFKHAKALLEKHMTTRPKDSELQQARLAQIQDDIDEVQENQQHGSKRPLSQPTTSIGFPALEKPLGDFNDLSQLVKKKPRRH

Columns and labels:
Test in all cases: co-IP; TAP-tagged bait (Hat1, Hat2, Asf1 or Spt2) immunoprecipitated from lysates of yeast cells carrying plasmid-borne 12MYC-Hif1 constructs; blots with anti-MYC and anti-TAP; for Asf1 also a one step co-IP with TEV protease elution (Figure 3E)
Asf1-TAP (S. cerevisiae) = Asf1-TAP (S. cerevisiae) (UniProt P32447)
Hat2-TAP (S. cerevisiae) = target: T1, Hat2-TAP (S. cerevisiae) (UniProt P39984)
T1 sequence: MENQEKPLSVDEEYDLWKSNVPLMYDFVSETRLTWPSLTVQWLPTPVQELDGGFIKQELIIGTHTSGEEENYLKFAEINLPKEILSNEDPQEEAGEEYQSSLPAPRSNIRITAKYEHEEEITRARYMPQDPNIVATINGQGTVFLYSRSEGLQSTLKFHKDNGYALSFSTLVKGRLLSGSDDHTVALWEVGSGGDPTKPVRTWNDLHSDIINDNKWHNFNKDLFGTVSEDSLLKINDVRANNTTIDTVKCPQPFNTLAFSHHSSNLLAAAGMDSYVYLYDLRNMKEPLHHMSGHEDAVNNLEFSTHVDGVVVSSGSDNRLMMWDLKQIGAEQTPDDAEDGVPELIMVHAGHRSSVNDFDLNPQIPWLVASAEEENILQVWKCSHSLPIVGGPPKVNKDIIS

Hat1-TAP (S. cerevisiae) = Hat1-TAP (S. cerevisiae) (UniProt Q12341)

Substance | binding (Asf1-TAP (S. cerevisiae)) | binding (Hat2-TAP (S. cerevisiae)) | binding (Hat1-TAP (S. cerevisiae))
12MYC-Hif1 C-terminal deletion mutant lacking the C-terminus including TPR4 (from UniProt Q12373) (domain or fragment) | binds | binds | binds
12MYC-Hif1 C-terminal deletion mutant lacking the C-terminus until TPR2 (from UniProt Q12373) (domain or fragment) | binds | binds | binds
12MYC-Hif1 C-terminal deletion mutant lacking the NLS (from UniProt Q12373) (domain or fragment) | binds | binds | binds
12MYC-Hif1 C-terminal deletion mutant lacking the whole C-terminus until the TPR4 (from UniProt Q12373) (domain or fragment) | binds | binds | binds
12MYC-Hif1 internal deletion mutant lacking TPR1 (from UniProt Q12373) | binds | binds | binds
12MYC-Hif1 internal deletion mutant lacking TPR2 (from UniProt Q12373) |  | no binding | no binding
12MYC-Hif1 internal deletion mutant lacking TPR3 (from UniProt Q12373) | binds | binds | binds
12MYC-Hif1 internal deletion mutant lacking TPR4 (from UniProt Q12373) | binds | binds | binds
12MYC-Hif1 mutant lacking only the acidic region of TPR2 (from UniProt Q12373) |  | no binding | no binding
